The nature of the test: qHTS Assay to Find Inhibitors of Chronic Active B-Cell Receptor Signaling. The following applies: ABC-DLBCL IkBa-CBG/CBR reporter, luminescence ratio (green luciferase fused to IkBa over red control in TMD8 lymphoma cells), 4 h. The method in brief:
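TMD8 human ABC-DLBCL cells with doxycycline-inducible IκBα–green luciferase fusion and unfused red luciferase, in 0.5% FBS medium; compounds up to 46 uM, 4 h at 37C. Green/red luminescence ratio, filter-overlap corrected, fitted to concentration-response curves.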
Background: qHTS replaces the single test concentration by a dilution series.

The mark [1] stands for this setting: measured here: CBR red luminescence, cell number.
The mark [2] stands for this setting: measured here: IkBa-CBG green luminescence.

The structures appear in SMILES notation. Some of the results follow. Further columns of the screen follow, without active or inactive calls. Compounds called inactive in the main read-out are mostly missing here. Words in brackets tell the shape of the fitted curve; partial curves, single points and poor fits give uncertain potencies.

With `COc1ccccc1NC(=O)CCCCCN1C(=O)c2cccc3cccc(c23)C1=O`, the concentration at half-maximal activity (AC50) under setting [1] was 1.26 µM [rising, full curve].

On to `Cc1ccc(S(=O)(=O)NCc2ccc(/C=C(/C#N)C(=O)NCc3ccccc3)o2)cc1`, for which the AC50 under setting [1] is 7.31 µM [rising, partial curve, poor fit]. Still for that read-out and setting: the same measure for `Cc1cccc2cc(CN(Cc3cccs3)C(c3nnnn3C3CCCC3)C(C)C)c(=O)[nH]c12` (stereo not drawn): 15.8 µM [falling, partial curve, poor fit]. Still for that read-out and setting: the same measure for `CC1CCN(C(=O)CSc2nnc(-c3cccs3)o2)CC1`: 3.55 µM [rising, single point]; for `CCN=c1sc2ccccc2n1CC(O)COc1ccccc1` (stereo not drawn): 18.4 µM [falling, partial curve]. Turning to `CCC(=O)Nc1ccc(NC(=O)c2oc3ccccc3c2C)cc1`, the AC50 under setting [1] is 35.5 µM [rising, single point]. With `O=C(COc1ccccc1[N+](=O)[O-])Nc1cccc(S(=O)(=O)NC2=NCCCCC2)c1`, under setting [1], the AC50 was 18.4 µM [falling, partial curve, poor fit]. The same measure, in the same setting: the same measure for `NC(N)=NNC(=O)c1ccccc1Cl`: 13 µM [falling, partial curve, poor fit].

As to `CC(=O)NCC(=O)N(c1ccccc1)C1(C(=O)NC2CCCCC2)CCCCC1`, under setting [1], the half-maximal activity concentration (AC50) was 8.91 µM [rising, partial curve, poor fit]. On to `COc1ccc(C2=NOC(C(=O)NCc3ccc(F)cc3)C2)cc1` (stereo not drawn), for which the concentration at half-maximal activity (AC50) under setting [1] was 5.01 µM [rising, full curve] and the AC50 under setting [2] is 3.16 µM [falling, full curve].

In the case of `O=C1CCOc2cc(OCc3ccccc3)ccc21`, the half-maximal activity concentration (AC50) under setting [1] is 29.1 µM [falling, single point]. Regarding `CCOc1cc(/C=N/O)ccc1OCc1ccccc1F`, the concentration at half-maximal activity (AC50) under setting [1] is 0.231 µM [rising, full curve] and the half-maximal activity concentration (AC50) under setting [2] was 20.6 µM [falling, partial curve, poor fit]. On to `Cc1nc(SCC(=O)N2CCc3ccccc3C2)c2c(C)c(C)sc2n1`, for which, under setting [1], the concentration at half-maximal activity (AC50) was 8.2 µM [falling, partial curve, poor fit]. With `CCOc1ccccc1NC(=S)NNS(=O)(=O)c1c(C)cc(C)cc1C`, under setting [1], the concentration at half-maximal activity (AC50) is 11.6 µM [falling, partial curve]. Regarding `CC(=O)Nc1ccc2nc(-c3cccn3C)[nH]c2c1`, under setting [1], the concentration at half-maximal activity (AC50) was 17.8 µM [falling, partial curve, poor fit]. Same read-out and setting: the same measure for `CCn1c(NC(=S)Nc2ccccc2)nc2ccccc21`: 22.4 µM [falling, single point]; for `Cc1sc2nc(CSCC(=O)Nc3c(F)cccc3F)[nH]c(=O)c2c1C`: 29.1 µM [rising, single point]. Same read-out and setting: the value for `CCOc1ccc(N(CC(=O)NCc2ccco2)C(=O)CCC(=O)Nc2ccccn2)cc1` was 0.1 µM [falling, full curve, poor fit]; that for `CC(=O)c1ccc2noc(-c3cccc(F)c3)c2c1` was 35.5 µM [falling, single point]. Still for that read-out and setting: the same measure for `COCCCNC(=O)c1ccccc1N(Cc1ccccc1)S(=O)(=O)c1ccccc1`: 15.8 µM [rising, partial curve, poor fit]; for `CN(C)C(CNC(=O)c1ccc(C2SCCS2)cc1)c1ccccc1` (stereo not drawn): 7.08 µM [falling, full curve]; for `Brc1ccc(CSc2nnc(-c3ccco3)o2)cc1`: 4.11 µM [rising, full curve, poor fit].

For the molecule `Cc1cccc2sc(NC(=O)CN3C(=O)C4CC=CCC4C3=O)nc12` (stereo not drawn), under setting [1], the concentration at half-maximal activity (AC50) is 7.94 µM [falling, partial curve, poor fit]. For the molecule `Cc1ccc(C)c(NC(NC(=O)c2cccnc2)C(Cl)(Cl)Cl)c1` (stereo not drawn), under setting [1], the concentration at half-maximal activity (AC50) is 2.82 µM [rising, partial curve, poor fit]. Take `CCOC(=O)C1=C(c2ccccc2)O/C(=C(/C(=O)OC)C(F)(F)F)S1`: under setting [1], the AC50 is 1.03 µM [falling, partial curve, poor fit]. Regarding `COc1ccc2nc(C)c3cc(C)oc3c2c1`, the concentration at half-maximal activity (AC50) under setting [2] was 2.31 µM [falling, partial curve, poor fit]. On to `O=C(Nc1nc2ccccc2s1)c1ccc(F)cc1`, for which the AC50 reads like this: under setting [1], 1.26 µM [falling, full curve]; under setting [2], 0.794 µM [rising, full curve, poor fit].

As for `O=C(COC(=O)COc1ccc(Br)cc1)NC1CCCC1`, the concentration at half-maximal activity (AC50) under setting [1] was 6.51 µM [rising, full curve, poor fit]. As to `N=c1c2c(-c3ccccc3)c(-c3ccccc3)n(Cc3ccco3)c2ncn1CCCn1ccnc1`, under setting [1], the AC50 is 20.6 µM [falling, single point].

For `Cc1cccc(-c2noc(-c3ccc(Cl)cc3[N+](=O)[O-])n2)c1`, the AC50 under setting [1] is 2.06 µM [rising, full curve, poor fit]. `Cc1cccc(OCCCC(=O)N2CCCc3ccccc32)c1C`: the half-maximal activity concentration (AC50) under setting [1] was 29.1 µM [falling, partial curve, poor fit].

Regarding `C=CCNc1nnc(SC2CC(=O)N(c3ccc(OCCC)cc3)C2=O)s1` (stereo not drawn), the half-maximal activity concentration (AC50) under setting [1] is 0.92 µM [falling, partial curve, poor fit].

In the case of `CCNC(C(=O)c1c[nH]c2c(CC)cccc12)c1ccccc1` (stereo not drawn), the AC50 under setting [1] is 35.5 µM [falling, single point]. Same read-out and setting: the value for `O=[N+]([O-])c1cccc(C(=Nc2ccccc2Cl)NO)c1` was 3.66 µM [rising, full curve, poor fit]. In the case of `O=C(CCNS(=O)(=O)c1cccc2nonc12)NC1CCCc2ccccc21` (stereo not drawn), the concentration at half-maximal activity (AC50) under setting [1] is 0.164 µM [rising, full curve, poor fit].

Consider `Oc1ccc(/C=N/Nc2ccc(C(F)(F)F)cn2)cc1`, for which, under setting [1], the half-maximal activity concentration (AC50) was 35.5 µM [falling, single point].

Consider `O=C(Nc1ccc(N2CCN(C(=O)c3ccccc3)CC2)cc1)c1ccc([N+](=O)[O-])o1`, for which the AC50 under setting [1] was 7.94 µM [falling, partial curve, poor fit]. The same measure, in the same setting: the same measure for `Cc1ccc2oc(=O)c3cnn(CC(=O)N4CCN(c5ccccn5)CC4)c3c2c1`: 29.1 µM [rising, partial curve, poor fit]; for `COc1ccccc1N1CCN(/N=C/c2cc(OC)c(OC(C)=O)c(OC)c2)CC1`: 1.26 µM [rising, full curve, poor fit].

On to `Cc1ccc(C(=O)NCCCc2ccccc2)c(Cl)c1`, for which, under setting [1], the concentration at half-maximal activity (AC50) was 6.31 µM [rising, partial curve, poor fit].

In general, AC50 refers to the concentration at which the activity in the assay is half-maximal.

Values taken from PubChem BioAssay AID493014 (National Center for Advancing Translational Sciences (NCATS), 2011).
